Assay results as given in patent US9023853B2, “Janus kinase 2 (JAK2) inhibitor for the treatment of lupus” (Cephalon, Inc., priority 2010, dated 2015).
For at least one compound, name, drawing or mass did not settle the structure.

How the values were obtained:
Assay type in all cases: in vivo, mouse
IFNα = assay: Serum IFNα at EOS in NZM mice; conditions: DEX 1.5 mg/kg three times a week ip
Procedure: Age mated, female, NZM or NZW/LacJ, mice were matured for the study of lupus nephritis for a total of 7 months or 210 days at which time urine was collected for proteinuria detection. Mice with 0.5-1.0 mg/ml of urine protein as determined by an optical density-based total protein precipitation assay and cross-checked for 30-300 mg/dl of protein as determined by a stick assay were considered proteinuria positive and selected for study entry. Groups were normalized to contain a Gaussian distribution of proteinuria positive animals (i.e., ⅓ low proteinuria, ⅓ medium, ⅓ high) then randomized between groups before ear marking and taking baseline measures including urine and serum collections. A total of five mice from the total population were randomly selected for baseline kidney histology evaluation. Treatments and tests for each group are as described in FIG. 12. Briefly, with a minimum of 10 mice per group, COMPOUND A was administered at 100 mg/kg or 55 mg/kg, both twice a day and orally. […] Vehicle included 3% DMSO, 10% Solutol and 87% PBS. […] End-stage lupus nephritis was evaluated by histopathology and scored by a board certified pathologist for the assessment of total renal damage in diseased animals using the scoring method described by Smith et al (Smith, Dong et al. 2007). […] Day-98 or “end of treatment/study” represents 310 days of age for the NZM animals.

plasma cells = assay: Spleen plasma cells by flow cytometry in NZM mice; conditions: dexamethasone 1.5 mg/kg three times a week ip
Procedure: Antibodies used for flow cytometry consisted of anti-mouse CD138-APC (eBioscience, San Diego, Calif.), anti-mouse CD19-FITC (eBioscience, San Diego, Calif.), anti-mouse CD38-PE (eBioscience, San Diego, Calif.) and anti-mouse CD45R/B220-Cyc (eBioscience, San Diego, Calif.), Rat IgG1-APC isotype control (eBioscience, San Diego, Calif.), Rat IgG2a-PE isotype control (eBioscience, San Diego, Calif.). All samples were analyzed using an Accuri C6 Flow Cytometer. Complete media was used for all experiments involving the ex vivo culture of splenocytes for all Elispot experiments. […]
Age mated, female, NZM or NZW/LacJ, mice were matured for the study of lupus nephritis for a total of 7 months or 210 days at which time urine was collected for proteinuria detection. Mice with 0.5-1.0 mg/ml of urine protein as determined by an optical density-based total protein precipitation assay and cross-checked for 30-300 mg/dl of protein as determined by a stick assay were considered proteinuria positive and selected for study entry. […] End-stage lupus nephritis was evaluated by histopathology and scored by a board certified pathologist for the assessment of total renal damage in diseased animals using the scoring method described by Smith et al (Smith, Dong et al. 2007). […]

MRL/lpr mice = assay: Renal histopathology kidney IC-GN scoring in MRL/lpr mice; conditions: dexamethasone 1.5 mg/kg three times per week i.p., FIG. 8
Procedure: Kidney stains used for histological analyses included hematoxylin and eosin (H&E), Periodic Acid Schiff (PAS) and Trichrome stains (Wistar Institute, Philadelphia, Pa.). All 3 stained sections were used by the pathologist for scoring purposes. All histological scoring was performed blinded and by an independent board certified veterinary medical pathologist (Julie […]; University of Pennsylvania). Multiple stains were used to determine score values. Images in FIGS. 8, 19 and 20 show worst affected area of section selected blindly by the pathologist. Kidney IC-GN Scoring Method (Smith, Dong et al. 2007): 1. Glomerular cellularity-Score 1-5: Null, low, moderate, high, severe […] Glomerular necrosis-Score 1-5: Null, low, moderate, high, severe […] Glomerulosclerosis-Score 1-5: Null, low, moderate, high, severe […] Null, low, moderate, high, severe 5. […] Null, low, moderate, high, severe 6. […] Null, low, moderate, high, severe 7. […] Null, low, moderate, high, severe Specific Pathologist Definitions: • Necrosis was defined by the presence of nuclear debris/pyknosis within the glomerular tuft indicative of “necrosis.” In many samples, this was a very mild, rare finding within only a very few segments of the glomerular tuft. […]

C[C@@H]1C[C@H]2[C@@H]3CCC4=CC(=O)C=C[C@]4(C)[C@@]3(F)[C@@H](O)C[C@]2(C)[C@@]1(O)C(=O)CO [Dex, dexamethasone, reference compound]
serum IFNα reduction (IFNα): Neither standard of care agent (i.e., CTX or DEX) exhibited a significant reduction
levels of spleen plasma cells (plasma cells): the decrease was not significant
enlarged glomeruli and leukocytic infiltrations in renal sections (MRL/lpr mice): enlarged glomeruli and leukocytic infiltrations
